Where two headings read alike, the source gives them in different places. Results are given in words; binding and its absence hold for the method and conditions named. In cells and extracts the contact can be indirect. These calls come from enrichment with a bait or labelling near it, and not all partners need be listed. For some assays here: No binding means not detected with the bait. For some assays here: Sequences can lack the tags named with a protein.
T1: TAP-Sen1ΔNTD (Sen1 lacking the N-terminal domain, TAP-tagged, expressed from pGAL1) (S. cerevisiae) (UniProt Q00416)
T1 sequence: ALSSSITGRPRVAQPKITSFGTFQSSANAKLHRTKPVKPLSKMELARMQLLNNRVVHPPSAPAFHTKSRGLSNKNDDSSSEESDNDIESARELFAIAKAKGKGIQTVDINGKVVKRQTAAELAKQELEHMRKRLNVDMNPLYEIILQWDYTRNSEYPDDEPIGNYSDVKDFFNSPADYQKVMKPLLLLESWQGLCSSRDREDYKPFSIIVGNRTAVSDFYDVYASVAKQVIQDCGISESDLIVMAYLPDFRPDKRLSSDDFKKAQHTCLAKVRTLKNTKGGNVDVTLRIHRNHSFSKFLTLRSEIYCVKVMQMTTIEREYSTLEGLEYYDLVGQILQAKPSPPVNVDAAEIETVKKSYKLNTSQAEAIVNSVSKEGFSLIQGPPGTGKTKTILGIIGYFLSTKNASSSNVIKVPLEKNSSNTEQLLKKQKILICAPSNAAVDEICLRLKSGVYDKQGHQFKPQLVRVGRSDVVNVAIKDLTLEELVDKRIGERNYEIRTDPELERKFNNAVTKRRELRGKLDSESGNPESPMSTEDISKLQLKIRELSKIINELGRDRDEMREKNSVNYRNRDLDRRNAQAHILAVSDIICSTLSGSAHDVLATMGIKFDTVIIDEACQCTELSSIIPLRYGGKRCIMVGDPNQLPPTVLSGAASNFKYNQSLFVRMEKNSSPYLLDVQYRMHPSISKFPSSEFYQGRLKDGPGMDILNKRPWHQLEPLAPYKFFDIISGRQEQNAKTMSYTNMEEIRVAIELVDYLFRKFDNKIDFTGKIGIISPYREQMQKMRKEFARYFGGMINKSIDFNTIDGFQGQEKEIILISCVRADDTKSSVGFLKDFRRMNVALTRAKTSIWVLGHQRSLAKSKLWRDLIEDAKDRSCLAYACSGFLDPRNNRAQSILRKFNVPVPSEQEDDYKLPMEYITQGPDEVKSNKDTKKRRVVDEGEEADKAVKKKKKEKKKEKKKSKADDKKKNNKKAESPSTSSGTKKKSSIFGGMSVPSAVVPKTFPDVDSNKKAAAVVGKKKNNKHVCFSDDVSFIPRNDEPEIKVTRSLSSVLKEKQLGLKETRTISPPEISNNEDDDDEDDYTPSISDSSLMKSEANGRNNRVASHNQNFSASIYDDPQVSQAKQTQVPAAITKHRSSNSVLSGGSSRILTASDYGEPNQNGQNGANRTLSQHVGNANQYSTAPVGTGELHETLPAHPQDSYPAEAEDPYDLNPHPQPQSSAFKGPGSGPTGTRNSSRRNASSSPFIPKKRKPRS

Amino acid sequences for entries named in this document (tags omitted).
UniProt P08518: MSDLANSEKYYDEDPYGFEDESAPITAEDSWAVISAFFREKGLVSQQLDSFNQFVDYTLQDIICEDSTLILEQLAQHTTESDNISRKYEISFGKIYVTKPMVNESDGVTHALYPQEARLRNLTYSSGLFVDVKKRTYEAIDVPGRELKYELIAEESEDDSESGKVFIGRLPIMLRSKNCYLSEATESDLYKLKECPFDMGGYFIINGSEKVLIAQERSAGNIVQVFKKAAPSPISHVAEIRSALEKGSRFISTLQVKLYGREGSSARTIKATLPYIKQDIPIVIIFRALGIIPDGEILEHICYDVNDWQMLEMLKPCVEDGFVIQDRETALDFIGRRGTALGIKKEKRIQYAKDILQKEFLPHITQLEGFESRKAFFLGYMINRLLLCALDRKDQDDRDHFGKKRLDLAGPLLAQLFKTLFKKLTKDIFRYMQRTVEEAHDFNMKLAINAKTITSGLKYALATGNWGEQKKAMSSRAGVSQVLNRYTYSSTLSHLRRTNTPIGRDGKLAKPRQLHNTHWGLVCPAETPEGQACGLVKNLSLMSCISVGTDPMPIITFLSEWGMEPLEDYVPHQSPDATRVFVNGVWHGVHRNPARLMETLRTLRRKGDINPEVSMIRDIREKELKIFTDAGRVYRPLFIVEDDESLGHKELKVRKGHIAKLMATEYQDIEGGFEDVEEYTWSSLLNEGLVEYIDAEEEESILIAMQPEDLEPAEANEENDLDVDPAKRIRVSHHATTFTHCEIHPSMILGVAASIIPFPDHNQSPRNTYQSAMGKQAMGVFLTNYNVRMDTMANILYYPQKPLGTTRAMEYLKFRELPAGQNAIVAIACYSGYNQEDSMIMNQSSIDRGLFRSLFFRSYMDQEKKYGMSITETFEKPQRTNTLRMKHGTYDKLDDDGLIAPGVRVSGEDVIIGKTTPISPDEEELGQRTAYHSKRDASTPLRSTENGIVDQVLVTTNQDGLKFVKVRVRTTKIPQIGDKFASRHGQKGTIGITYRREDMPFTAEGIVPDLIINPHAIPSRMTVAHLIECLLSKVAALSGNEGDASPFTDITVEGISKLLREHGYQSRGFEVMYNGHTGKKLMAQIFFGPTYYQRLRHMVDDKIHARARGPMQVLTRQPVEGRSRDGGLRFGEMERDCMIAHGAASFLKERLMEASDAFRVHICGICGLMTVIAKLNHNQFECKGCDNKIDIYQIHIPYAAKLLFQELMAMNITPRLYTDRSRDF
UniProt P04050: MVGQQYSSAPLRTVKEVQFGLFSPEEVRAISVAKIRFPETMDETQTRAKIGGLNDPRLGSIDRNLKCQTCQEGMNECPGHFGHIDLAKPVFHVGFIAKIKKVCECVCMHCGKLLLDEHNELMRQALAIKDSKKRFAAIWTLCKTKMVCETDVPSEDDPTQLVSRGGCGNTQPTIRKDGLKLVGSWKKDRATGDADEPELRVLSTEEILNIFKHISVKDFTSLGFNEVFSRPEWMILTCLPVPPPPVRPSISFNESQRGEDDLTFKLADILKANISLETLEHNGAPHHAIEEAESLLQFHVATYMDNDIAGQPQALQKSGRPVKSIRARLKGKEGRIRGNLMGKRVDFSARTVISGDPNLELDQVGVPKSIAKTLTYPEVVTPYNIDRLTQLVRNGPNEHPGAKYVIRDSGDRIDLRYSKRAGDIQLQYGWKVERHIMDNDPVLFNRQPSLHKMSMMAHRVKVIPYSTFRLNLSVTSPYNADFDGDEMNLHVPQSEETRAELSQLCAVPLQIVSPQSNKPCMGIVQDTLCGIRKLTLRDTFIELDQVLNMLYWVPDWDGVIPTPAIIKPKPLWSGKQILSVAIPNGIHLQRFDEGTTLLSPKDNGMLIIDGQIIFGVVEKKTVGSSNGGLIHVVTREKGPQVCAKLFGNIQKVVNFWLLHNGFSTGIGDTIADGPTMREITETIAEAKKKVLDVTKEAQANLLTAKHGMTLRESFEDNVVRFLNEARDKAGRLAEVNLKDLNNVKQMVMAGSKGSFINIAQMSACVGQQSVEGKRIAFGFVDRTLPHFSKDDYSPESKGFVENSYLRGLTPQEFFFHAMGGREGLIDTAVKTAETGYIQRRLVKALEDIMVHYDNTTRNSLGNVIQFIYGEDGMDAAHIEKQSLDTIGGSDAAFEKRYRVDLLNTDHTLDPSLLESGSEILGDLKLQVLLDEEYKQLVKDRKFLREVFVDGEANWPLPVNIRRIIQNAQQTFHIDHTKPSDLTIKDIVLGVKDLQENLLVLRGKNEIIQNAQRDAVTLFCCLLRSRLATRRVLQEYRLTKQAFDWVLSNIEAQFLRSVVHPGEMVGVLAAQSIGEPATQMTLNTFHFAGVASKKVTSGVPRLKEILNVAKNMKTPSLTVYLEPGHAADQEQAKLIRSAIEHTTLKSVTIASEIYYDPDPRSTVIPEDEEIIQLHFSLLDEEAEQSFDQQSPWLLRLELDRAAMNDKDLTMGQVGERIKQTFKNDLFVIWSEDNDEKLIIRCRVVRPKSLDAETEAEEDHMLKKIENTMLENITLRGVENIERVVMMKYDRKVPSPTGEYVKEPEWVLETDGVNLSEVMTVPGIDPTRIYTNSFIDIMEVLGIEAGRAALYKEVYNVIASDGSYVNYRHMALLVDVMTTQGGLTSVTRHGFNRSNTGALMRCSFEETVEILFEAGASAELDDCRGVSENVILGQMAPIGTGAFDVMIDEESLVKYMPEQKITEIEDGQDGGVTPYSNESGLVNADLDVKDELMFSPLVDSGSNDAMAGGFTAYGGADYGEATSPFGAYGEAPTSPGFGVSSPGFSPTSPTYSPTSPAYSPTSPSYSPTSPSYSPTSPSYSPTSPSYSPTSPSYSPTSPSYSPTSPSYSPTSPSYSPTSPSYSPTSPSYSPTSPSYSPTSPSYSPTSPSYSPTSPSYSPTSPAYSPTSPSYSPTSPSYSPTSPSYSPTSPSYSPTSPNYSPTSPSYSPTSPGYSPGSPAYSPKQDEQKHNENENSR

T2: Rpc160-HTP (largest subunit of RNAPIII, C-terminally His6–TEV–Protein A tagged) (S. cerevisiae) (UniProt P04051)
T2 sequence: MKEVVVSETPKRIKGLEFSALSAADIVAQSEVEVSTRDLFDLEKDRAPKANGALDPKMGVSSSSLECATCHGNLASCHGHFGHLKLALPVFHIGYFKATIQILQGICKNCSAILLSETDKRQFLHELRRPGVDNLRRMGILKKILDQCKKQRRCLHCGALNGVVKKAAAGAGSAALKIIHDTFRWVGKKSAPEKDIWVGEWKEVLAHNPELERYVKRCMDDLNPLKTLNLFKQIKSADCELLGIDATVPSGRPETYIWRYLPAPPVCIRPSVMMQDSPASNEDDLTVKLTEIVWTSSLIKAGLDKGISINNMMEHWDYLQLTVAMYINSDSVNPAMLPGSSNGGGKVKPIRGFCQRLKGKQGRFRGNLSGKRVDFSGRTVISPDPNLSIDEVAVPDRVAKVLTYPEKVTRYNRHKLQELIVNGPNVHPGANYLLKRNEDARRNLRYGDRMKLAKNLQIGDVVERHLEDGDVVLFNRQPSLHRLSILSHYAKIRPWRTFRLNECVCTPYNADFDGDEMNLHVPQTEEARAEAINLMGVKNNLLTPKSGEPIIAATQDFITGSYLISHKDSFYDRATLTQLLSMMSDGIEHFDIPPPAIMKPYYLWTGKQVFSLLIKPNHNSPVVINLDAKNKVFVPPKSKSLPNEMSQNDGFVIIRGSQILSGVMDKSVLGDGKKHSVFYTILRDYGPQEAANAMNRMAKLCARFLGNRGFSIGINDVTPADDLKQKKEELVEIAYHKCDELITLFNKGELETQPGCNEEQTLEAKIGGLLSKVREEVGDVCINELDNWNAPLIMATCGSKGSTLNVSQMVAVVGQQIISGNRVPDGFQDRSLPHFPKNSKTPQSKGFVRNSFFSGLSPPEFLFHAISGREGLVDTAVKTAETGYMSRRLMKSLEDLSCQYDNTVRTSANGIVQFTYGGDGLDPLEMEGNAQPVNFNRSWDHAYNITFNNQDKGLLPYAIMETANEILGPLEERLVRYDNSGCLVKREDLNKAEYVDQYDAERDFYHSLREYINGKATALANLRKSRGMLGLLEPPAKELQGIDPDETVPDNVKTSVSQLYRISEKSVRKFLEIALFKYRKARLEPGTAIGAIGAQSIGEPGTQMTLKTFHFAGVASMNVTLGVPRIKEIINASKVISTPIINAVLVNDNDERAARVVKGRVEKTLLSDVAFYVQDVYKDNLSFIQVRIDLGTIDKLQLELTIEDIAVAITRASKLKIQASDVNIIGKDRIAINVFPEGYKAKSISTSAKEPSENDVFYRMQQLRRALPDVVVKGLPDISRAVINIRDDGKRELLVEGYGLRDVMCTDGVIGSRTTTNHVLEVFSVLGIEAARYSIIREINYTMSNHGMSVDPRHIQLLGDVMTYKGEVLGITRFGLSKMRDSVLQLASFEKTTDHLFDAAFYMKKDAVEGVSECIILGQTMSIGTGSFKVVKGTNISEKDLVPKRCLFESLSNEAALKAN

T3: TAP-NTD (isolated N-terminal domain of Sen1, TAP-tagged, expressed from pGAL1) (S. cerevisiae) (UniProt Q00416)
T3 sequence: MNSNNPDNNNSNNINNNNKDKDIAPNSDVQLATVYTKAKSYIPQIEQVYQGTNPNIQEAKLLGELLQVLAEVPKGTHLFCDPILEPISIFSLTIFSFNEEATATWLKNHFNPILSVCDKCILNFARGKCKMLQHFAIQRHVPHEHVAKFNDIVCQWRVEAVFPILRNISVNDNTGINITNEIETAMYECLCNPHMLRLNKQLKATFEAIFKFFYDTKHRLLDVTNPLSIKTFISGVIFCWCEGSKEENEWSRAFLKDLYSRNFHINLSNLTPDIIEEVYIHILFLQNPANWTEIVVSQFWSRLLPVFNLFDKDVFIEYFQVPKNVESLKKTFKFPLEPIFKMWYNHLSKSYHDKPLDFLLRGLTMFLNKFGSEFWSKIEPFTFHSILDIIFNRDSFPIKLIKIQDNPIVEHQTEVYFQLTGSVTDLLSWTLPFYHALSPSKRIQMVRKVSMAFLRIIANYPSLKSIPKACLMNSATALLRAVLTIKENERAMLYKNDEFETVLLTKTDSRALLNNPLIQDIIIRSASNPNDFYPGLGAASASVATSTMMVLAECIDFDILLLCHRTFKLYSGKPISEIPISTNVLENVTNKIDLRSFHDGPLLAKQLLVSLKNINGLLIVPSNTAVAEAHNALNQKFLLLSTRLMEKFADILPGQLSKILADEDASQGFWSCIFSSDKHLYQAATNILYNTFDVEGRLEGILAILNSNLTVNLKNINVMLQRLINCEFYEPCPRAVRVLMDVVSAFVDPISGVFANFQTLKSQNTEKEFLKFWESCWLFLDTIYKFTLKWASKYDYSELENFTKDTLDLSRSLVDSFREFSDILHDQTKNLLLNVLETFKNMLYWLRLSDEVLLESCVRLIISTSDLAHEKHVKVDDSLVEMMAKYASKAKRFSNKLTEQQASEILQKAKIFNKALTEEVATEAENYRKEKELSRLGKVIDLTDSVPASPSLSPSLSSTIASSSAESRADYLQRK


Columns and labels:
[1] = molecular target: TAP-Sen1 (full-length Sen1 fused to a tandem affinity purification tag, expressed from pGAL1) (S. cerevisiae) (UniProt Q00416); test: affinity purification with mass spectrometry; TAP-tagged Sen1 versions (full length, ΔNTD, NTD) overexpressed from pGAL1 as baits; yeast lysates in 10 mM sodium phosphate pH 7.5, 200 mM sodium acetate, 0.25% NP-40, treated with RNase A; IgG Sepharose; elution by TEV cleavage; untagged control
[2] = molecular target: T1, TAP-Sen1ΔNTD (Sen1 lacking the N-terminal domain, TAP-tagged, expressed from pGAL1) (S. cerevisiae); test: as above
[3] = molecular target: Sen1-TAP (wild-type Sen1 fused to a TAP tag) (S. cerevisiae) (UniProt Q00416); test: affinity purification with mass spectrometry; Sen1-TAP or Sen1-3–TAP as bait; yeast lysates; untagged control
[4] = molecular target: Sen1-3–TAP (Sen1 W773A E774A W777A fused to a TAP tag) (S. cerevisiae) (UniProt Q00416); test: as above
[5] = molecular target: T2, Rpc160-HTP (largest subunit of RNAPIII, C-terminally His6–TEV–Protein A tagged) (S. cerevisiae); test: affinity purification with mass spectrometry; Rpc160-HTP as bait in WT (SEN1) or sen1-3 cells; IgG-coupled Dynabeads, 2 hours at 4°C; no RNase A treatment; label-free quantitative MS against an untagged control
[6] = molecular target: T3, TAP-NTD (isolated N-terminal domain of Sen1, TAP-tagged, expressed from pGAL1) (S. cerevisiae); test: affinity purification with mass spectrometry; TAP-tagged Sen1 versions (full length, ΔNTD, NTD) overexpressed from pGAL1 as baits; yeast lysates in 10 mM sodium phosphate pH 7.5, 200 mM sodium acetate, 0.25% NP-40, treated with RNase A; IgG Sepharose; elution by TEV cleavage; untagged control
[7] = molecular target: Sen1-TAP (wild-type Sen1 fused to a TAP tag) (S. cerevisiae) (UniProt Q00416); test: affinity purification with mass spectrometry; Sen1-TAP or Sen1-3–TAP as bait; yeast lysates; untagged control; remark: listed apart in the source
[8] = molecular target: Sen1-3–TAP (Sen1 W773A E774A W777A fused to a TAP tag) (S. cerevisiae) (UniProt Q00416); test: as above; remark: listed apart in the source

binding [1]	binding [2]	binding [3]	binding [4]	binding [5]	binding [6]	binding [7]	binding [8]	Molecule
binds	binds	binds	binds	–	–	–	–	Rpb2 (from UniProt P08518 1-1224)
binds	binds	binds	binds	–	–	–	–	Rpb1 (from UniProt P04050 1-1733)
–	–	–	–	binds	–	–	–	Sen1 (untagged, in cells expressing Rpc160-HTP, SEN1 background) (from UniProt Q00416 1-2231)
binds	binds	–	–	–	no binding	binds	binds	Nab3 (protein, UniProt P38996 1-802) MSDENHNSDVQDIPSPELSVDSNSNENELMNNSSADDGIEFDAPEEEREAEREEENEEQHELEDVNDEEEEDKEEKGEENGEVINTEEEEEEEHQQKGGNDDDDDDNEEEEEEEEDDDDDDDDDDDDEEEEEEEEEEGNDNSSVGSDSAAEDGEDEEDKKDKTKDKEVELRRETLEKEQKDVDEAIKKITREENDNTHFPTNMENVNYDLLQKQVKYIMDSNMLNLPQFQHLPQEEKMSAILAMLNSNSDTALSVPPHDSTISTTASASATSGARSNDQRKPPLSDAQRRMRFPRADLSKPITEEEHDRYAAYLHGENKITEMHNIPPKSRLFIGNLPLKNVSKEDLFRIFSPYGHIMQINIKNAFGFIQFDNPQSVRDAIECESQEMNFGKKLILEVSSSNARPQFDHGDHGTNSSSTFISSAKRPFQTESGDMYNDDNGAGYKKSRRHTVSCNIFVKRTADRTYAIEVFNRFRDGTGLETDMIFLKPRMELGKLINDAAYNGVWGVVLVNKTHNVDVQTFYKGSQGETKFDEYISISADDAVAIFNNIKNNRNNSRPTDYRAMSHQQNIYGAPPLPVPNGPAVGPPPQTNYYQGYSMPPPQQQQQQPYGNYGMPPPSHDQGYGSQPPIPMNQSYGRYQTSIPPPPPQQQIPQGYGRYQAGPPPQPPSQTPMDQQQLLSAIQNLPPNVVSNLLSMAQQQQQQPHAQQQLVGLIQSMQGQAPQQQQQQLGGYSSMNSSSPPPMSTNYNGQNISAKPSAPPMSHQPPPPQQQQQQQQQQQQQQQQPAGNNVQSLLDSLAKLQK
